The results in this text go back to PubChem BioAssay AID248 (DTP/NCI, 2004).

Molecules are shown by their SMILES. The list is a part of this screen's results and no random one: it gathers some chemical classes. Other doses and runs of a compound may be missing. T/C: endpoint of the treated group in % of that of the vehicle group. Where survival is the endpoint, the PubChem record calls one and a half times the control and up active, and a quarter to a half above the control has no call in these data; cut-offs in other NCI protocols can differ. Some entries show no survivor count and are marked so; the dose need not have been tolerated. Schedule codes are those of the source, taken here to give the interval after Q, in days (D) or hours (H), and the number of doses after X. Some doses were run more than once; the values are given in rising order.

The assay has as its system L1210 leukemia ip in BDF1 mice, survival T/C. Put plainly: NCI In Vivo Anticancer Drug Screen. Data for tumor model L1210 Leukemia (intraperitoneal) in B6D2F1 (BDF1) mice. As to conditions: T/C endpoint: mean survival time, higher T/C = longer survival.

Regarding `ClCCN1CCCC1CCl` (centres undefined), the T/C runs as follows: (dose: 0.75 mg/kg/injection, schedule: Q01DX009 (ip), vehicle: saline) 105 % of control [survivor count not shown]; (dose: 1.3 mg/kg/injection, schedule: Q01DX009 (ip), vehicle: saline with Tween-80) 112 % of control [survivor count not shown]; (dose: 1.5 mg/kg/injection, schedule: Q01DX009 (ip), vehicle: saline) 115 % of control [survivor count not shown]; (dose: 1.56 mg/kg/injection, schedule: Q04DX003 (ip), vehicle: saline) 105 % of control [survivor count not shown]; (dose: 2.0 mg/kg/injection, schedule: Q01DX009 (ip), vehicle: saline with Tween-80) 129 % of control [survivor count not shown]; (dose: 2.0 mg/kg/injection, schedule: Q01DX009 (ip), vehicle: saline) 128 % of control [survivor count not shown]. The T/C runs as follows: (dose: 3.0 mg/kg/injection, schedule: Q01DX009 (ip), vehicle: saline with Tween-80) 100 % of control [survivor count not shown]; (dose: 3.0 mg/kg/injection, schedule: Q01DX009 (ip), vehicle: saline) 113 [survivor count not shown] and 125 % of control [survivor count not shown]; (dose: 3.13 mg/kg/injection, schedule: Q04DX003 (ip), vehicle: saline) 122 % of control [survivor count not shown]; (dose: 4.5 mg/kg/injection, schedule: Q01DX009 (ip), vehicle: saline) 94 % of control [survivor count not shown]; (dose: 6.25 mg/kg/injection, schedule: Q04DX003 (ip), vehicle: saline) 143 % of control [survivor count not shown]; (dose: 12.5 mg/kg/injection, schedule: Q04DX003 (ip), vehicle: saline) 103 % of control [survivor count not shown].

Regarding `CN1CCCC(OC(=O)C(O)(c2ccccc2)C2CCCC2)C1` (centres undefined), the T/C reads like this: (dose: 12.5 mg/kg/injection, schedule: Q01DX009 (ip), vehicle: saline) 97 % of control [survivor count not shown]; (dose: 25.0 mg/kg/injection, schedule: Q01DX009 (ip), vehicle: saline) 91 % of control [survivor count not shown]; (dose: 25.0 mg/kg/injection, schedule: Q04DX003 (ip), vehicle: saline) 97 % of control [survivor count not shown]; (dose: 50.0 mg/kg/injection, schedule: Q01DX009 (ip), vehicle: saline) 93 % of control [survivor count not shown]; (dose: 50.0 mg/kg/injection, schedule: Q04DX003 (ip), vehicle: saline) 97 % of control [survivor count not shown]; (dose: 100.0 mg/kg/injection, schedule: Q04DX003 (ip), vehicle: saline) 100 % of control [survivor count not shown]. Besides, the T/C (dose: 200.0 mg/kg/injection, schedule: Q04DX003 (ip), vehicle: saline) is 97 % of control [survivor count not shown].

In the case of `ClCCN(CCCl)C12CC3CC(CC(C3)C1)C2`, the T/C reads like this: (dose: 0.11 mg/kg/injection, schedule: Q01DX009 (ip), vehicle: saline with Tween-80) 124 % of control [survivor count not shown]; (dose: 0.16 mg/kg/injection, schedule: Q01DX009 (ip), vehicle: saline with Tween-80) 137 % of control [survivor count not shown]; (dose: 0.25 mg/kg/injection, schedule: Q01DX009 (ip), vehicle: saline with Tween-80) 113 [survivor count not shown] and 132 % of control [survivor count not shown]; (dose: 0.39 mg/kg/injection, schedule: Q01DX009 (ip), vehicle: saline with Tween-80) 114 [survivor count not shown], 119 [survivor count not shown], 132 % of control [survivor count not shown]; (dose: 0.39 mg/kg/injection, schedule: Q04DX003 (ip), vehicle: saline with Tween-80) 107 % of control [survivor count not shown]; (dose: 0.51 mg/kg/injection, schedule: Q01DX009 (ip), vehicle: saline with Tween-80) 103 % of control [survivor count not shown]. Also, the T/C is 119 [survivor count not shown], 122 [survivor count not shown], 134 % of control [survivor count not shown] (dose: 0.78 mg/kg/injection, schedule: Q01DX009 (ip), vehicle: saline with Tween-80); 114 % of control [survivor count not shown] (dose: 0.78 mg/kg/injection, schedule: Q04DX003 (ip), vehicle: saline with Tween-80); 114 [survivor count not shown] and 141 % of control [survivor count not shown] (dose: 1.2 mg/kg/injection, schedule: Q01DX009 (ip), vehicle: saline with Tween-80); 94 % of control [survivor count not shown] (dose: 1.56 mg/kg/injection, schedule: Q01DX009 (ip), vehicle: saline with Tween-80); 112 % of control [survivor count not shown] (dose: 1.56 mg/kg/injection, schedule: Q04DX003 (ip), vehicle: saline with Tween-80); 121 % of control [survivor count not shown] (dose: 1.7 mg/kg/injection, schedule: Q01DX009 (ip), vehicle: saline with Tween-80).

As to `O=C(OC1CCN(Cc2ccccc2)CC1)C(O)(c1ccccc1)c1ccccc1`, the T/C by setting is: (dose: 100.0 mg/kg/injection, schedule: Q04DX002 (ip), vehicle: saline with Tween-80) 102 % of control [survivor count not shown]; (dose: 200.0 mg/kg/injection, schedule: Q04DX002 (ip), vehicle: saline with Tween-80) 91 % of control [survivor count not shown]; (dose: 400.0 mg/kg/injection, schedule: Q04DX002 (ip), vehicle: saline with Tween-80) 97 % of control [survivor count not shown].

As for `N#CC(C#N)=Cc1ccccc1Cl`, the T/C is 94 % of control [survivor count not shown] (dose: 12.5 mg/kg/injection, schedule: Q04DX003 (ip), vehicle: saline with Tween-80); 94 % of control [survivor count not shown] (dose: 25.0 mg/kg/injection, schedule: Q04DX003 (ip), vehicle: saline with Tween-80); 91 % of control [survivor count not shown] (dose: 50.0 mg/kg/injection, schedule: Q04DX003 (ip), vehicle: saline with Tween-80).

For the compound `Oc1ccc2ccccc2c1CN(CCCl)CCCl`, the T/C (dose: 34.0 mg/kg/injection, schedule: Q01DX001 (ip), vehicle: carboxymethylcellulose (CMC)) was 125 % of control [survivor count not shown]; the T/C (dose: 44.0 mg/kg/injection, schedule: Q01DX009 (ip), vehicle: carboxymethylcellulose (CMC)) was 120 % of control [survivor count not shown]; the T/C (dose: 52.0 mg/kg/injection, schedule: Q01DX001 (ip), vehicle: carboxymethylcellulose (CMC)) is 119 % of control [survivor count not shown]; the T/C (dose: 66.0 mg/kg/injection, schedule: Q01DX009 (ip), vehicle: carboxymethylcellulose (CMC)) is 108 % of control [survivor count not shown]; the T/C (dose: 78.0 mg/kg/injection, schedule: Q01DX001 (ip), vehicle: carboxymethylcellulose (CMC)) is 130 % of control [survivor count not shown]; the T/C (dose: 100.0 mg/kg/injection, schedule: Q01DX001 (ip), vehicle: carboxymethylcellulose (CMC)) is 116 % of control [survivor count not shown]. Moreover, the T/C is, setting by setting: (dose: 118.0 mg/kg/injection, schedule: Q01DX001 (ip), vehicle: carboxymethylcellulose (CMC)) 125 [survivor count not shown] and 130 % of control [survivor count not shown]; (dose: 177.0 mg/kg/injection, schedule: Q01DX001 (ip), vehicle: carboxymethylcellulose (CMC)) 135 [survivor count not shown] and 160 % of control [survivor count not shown]; (dose: 200.0 mg/kg/injection, schedule: Q01DX001 (ip), vehicle: carboxymethylcellulose (CMC)) 117 % of control [survivor count not shown]; (dose: 266.0 mg/kg/injection, schedule: Q01DX001 (ip), vehicle: carboxymethylcellulose (CMC)) 132 [survivor count not shown] and 144 % of control [survivor count not shown]; (dose: 400.0 mg/kg/injection, schedule: Q01DX001 (ip), vehicle: carboxymethylcellulose (CMC)) 134 [survivor count not shown], 135 [survivor count not shown], 137 % of control [survivor count not shown]; (dose: 600.0 mg/kg/injection, schedule: Q01DX001 (ip), vehicle: carboxymethylcellulose (CMC)) 141 % of control [survivor count not shown].
